# Target: Neutrophil collagenase (Homo sapiens, UniProt P22894)
# Sequences of proteins named here, by UniProt entry; tags and fusion partners are left off. A change or cut given only in a name is not applied to a line headed by its entry.
# UniProt P22894: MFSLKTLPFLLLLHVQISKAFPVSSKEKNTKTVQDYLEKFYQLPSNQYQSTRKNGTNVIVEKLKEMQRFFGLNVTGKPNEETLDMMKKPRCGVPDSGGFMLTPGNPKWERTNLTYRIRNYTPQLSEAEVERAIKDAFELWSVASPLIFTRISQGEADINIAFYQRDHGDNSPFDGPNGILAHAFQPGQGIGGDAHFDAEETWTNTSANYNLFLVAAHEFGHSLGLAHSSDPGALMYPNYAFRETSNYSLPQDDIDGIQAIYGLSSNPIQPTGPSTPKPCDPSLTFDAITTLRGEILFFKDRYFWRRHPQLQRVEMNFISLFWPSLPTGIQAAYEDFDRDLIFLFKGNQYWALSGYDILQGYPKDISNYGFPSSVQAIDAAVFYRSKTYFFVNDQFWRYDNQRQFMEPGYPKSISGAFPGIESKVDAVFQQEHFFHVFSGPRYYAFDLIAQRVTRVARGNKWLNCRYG
# Assay: Inhibition of human recombinant MMP8
# How it was run: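 Activation of pro-MMP-8 used APMA 2 mM for 1 h at 37 °C, with enzyme at 1.5 nM final. Enzyme and inhibitor (seven concentrations) were preincubated 4 h at 25 °C in Tris-buffered saline pH 7.5 with CaCl2 10 mM, Brij 35 0.05%, DMSO 1%. Then Mca-Lys-Pro-Leu-Gly-Leu-Dpa-Ala-Arg-NH2 was added, and fluorescence (ex 325, em 400 nm) was read every 15 s for 20 min, triplicate. IC50 was obtained via Vi/Vo = 1/(1+[I]/IC50).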
row,Structure (SMILES),IC50 [nM]
1,CNC(=O)[C@H](Cc1ccccc1)NC(=O)[C@@H](CC(=O)NO)CC(C)C,0.046
2,CNC(=O)[C@H](Cc1ccccc1)NC(=O)[C@H](CC(=O)NO)CC(C)C,48

# From ChEMBL document CHEMBL1156676, “Peptidyl 3-substituted 1-hydroxyureas as isosteric analogues of succinylhydroxamate MMP inhibitors” (Eur J Med Chem, 2008)
